Data taken from paper PMC10410754.
These are yes or no findings as the source states them, for the method shown. Binding seen in cells or lysates may run through a third protein. Some entries that bind do so weakly or less than the wild type. Each block holds one molecule with its values, some of them ahead of it.

By UniProt entry, the sequences of proteins in these tests, tags left out.
UniProt Q86VP3: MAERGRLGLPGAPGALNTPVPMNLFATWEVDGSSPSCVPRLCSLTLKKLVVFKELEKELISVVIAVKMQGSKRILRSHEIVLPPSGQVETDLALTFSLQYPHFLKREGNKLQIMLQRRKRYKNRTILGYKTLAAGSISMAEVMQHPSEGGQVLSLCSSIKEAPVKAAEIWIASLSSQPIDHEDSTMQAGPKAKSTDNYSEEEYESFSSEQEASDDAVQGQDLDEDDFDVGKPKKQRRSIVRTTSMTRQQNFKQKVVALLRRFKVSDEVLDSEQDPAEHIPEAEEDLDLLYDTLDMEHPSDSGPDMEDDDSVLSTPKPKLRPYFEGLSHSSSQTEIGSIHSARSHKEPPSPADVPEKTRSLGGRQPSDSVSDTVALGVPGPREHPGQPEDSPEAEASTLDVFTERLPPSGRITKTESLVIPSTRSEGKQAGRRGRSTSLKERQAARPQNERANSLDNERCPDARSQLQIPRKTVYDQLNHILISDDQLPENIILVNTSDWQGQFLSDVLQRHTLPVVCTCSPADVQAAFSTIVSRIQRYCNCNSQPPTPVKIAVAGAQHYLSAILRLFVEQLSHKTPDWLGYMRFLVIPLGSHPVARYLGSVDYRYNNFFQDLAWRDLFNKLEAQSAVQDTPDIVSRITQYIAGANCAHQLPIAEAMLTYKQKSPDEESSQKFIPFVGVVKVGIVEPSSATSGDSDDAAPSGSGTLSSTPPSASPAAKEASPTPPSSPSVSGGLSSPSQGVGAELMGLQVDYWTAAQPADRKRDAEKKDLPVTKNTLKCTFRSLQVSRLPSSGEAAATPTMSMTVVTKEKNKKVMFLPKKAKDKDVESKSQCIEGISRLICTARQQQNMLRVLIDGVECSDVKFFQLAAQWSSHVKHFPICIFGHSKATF
UniProt P68400: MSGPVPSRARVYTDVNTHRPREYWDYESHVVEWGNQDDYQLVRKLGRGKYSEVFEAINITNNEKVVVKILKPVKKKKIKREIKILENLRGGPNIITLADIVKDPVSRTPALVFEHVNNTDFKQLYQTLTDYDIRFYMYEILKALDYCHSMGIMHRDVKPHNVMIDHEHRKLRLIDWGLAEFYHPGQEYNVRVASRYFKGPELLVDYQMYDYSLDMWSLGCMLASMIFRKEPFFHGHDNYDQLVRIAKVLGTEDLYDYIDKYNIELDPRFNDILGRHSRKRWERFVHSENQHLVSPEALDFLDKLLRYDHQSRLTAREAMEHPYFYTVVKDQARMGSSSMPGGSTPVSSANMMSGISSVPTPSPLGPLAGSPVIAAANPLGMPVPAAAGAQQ

Legend:
PACS2, in HEK293 cells = PACS2, in HEK293 cells (UniProt Q86VP3); experiment: co-IP; coimmunoprecipitation of CK2A1, PACS2 and PKD2 in HEK293 cells; baits and constructs only in SI Appendix
[1] = molecular target: T1, polycystic kidney disease 2 (PKD2), in HEK293 cells (UniProt Q13563); experiment: as above
T1 sequence: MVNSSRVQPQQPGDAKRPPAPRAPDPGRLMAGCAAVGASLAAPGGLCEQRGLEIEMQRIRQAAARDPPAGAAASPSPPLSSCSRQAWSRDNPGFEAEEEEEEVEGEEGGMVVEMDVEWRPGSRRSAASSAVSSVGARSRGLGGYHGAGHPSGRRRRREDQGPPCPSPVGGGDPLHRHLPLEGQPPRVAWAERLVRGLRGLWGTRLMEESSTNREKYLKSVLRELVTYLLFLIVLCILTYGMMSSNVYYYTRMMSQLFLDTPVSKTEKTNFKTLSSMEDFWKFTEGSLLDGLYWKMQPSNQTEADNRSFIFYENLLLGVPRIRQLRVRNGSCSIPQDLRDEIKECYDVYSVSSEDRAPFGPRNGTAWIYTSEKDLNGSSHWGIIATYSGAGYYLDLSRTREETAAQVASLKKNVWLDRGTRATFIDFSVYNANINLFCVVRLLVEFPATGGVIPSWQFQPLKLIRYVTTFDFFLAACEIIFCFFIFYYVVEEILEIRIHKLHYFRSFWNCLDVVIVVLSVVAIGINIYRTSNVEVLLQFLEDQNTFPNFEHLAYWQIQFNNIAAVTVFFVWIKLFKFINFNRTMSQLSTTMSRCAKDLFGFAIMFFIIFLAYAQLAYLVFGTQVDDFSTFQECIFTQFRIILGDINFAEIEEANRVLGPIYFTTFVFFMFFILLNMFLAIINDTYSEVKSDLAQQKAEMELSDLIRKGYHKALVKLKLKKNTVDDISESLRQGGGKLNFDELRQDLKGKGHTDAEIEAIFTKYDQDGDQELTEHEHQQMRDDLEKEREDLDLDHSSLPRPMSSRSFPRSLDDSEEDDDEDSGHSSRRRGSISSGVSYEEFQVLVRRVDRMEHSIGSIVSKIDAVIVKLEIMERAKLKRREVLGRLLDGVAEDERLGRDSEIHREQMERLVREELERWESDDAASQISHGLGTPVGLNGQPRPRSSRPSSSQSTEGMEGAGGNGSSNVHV

[2] = molecular target: endogenous PACS2 (SY5Y cells) (human (endogenous in SY5Y)) (UniProt Q86VP3); experiment: co-IP; antibodies against PACS2; endogenous proteins in isolated ER-cytosol and MAM fractions of SY5Y cells; western blotting

- binding (PACS2, in HEK293 cells): binds
- binding [1]: binds
Molecule: casein kinase 2 alpha 1 (CK2A1), in HEK293 cells (from UniProt P68400 1-391) (enzyme)

- binding [2]: binds
Molecule: endogenous CK2A1 (SY5Y cells) (from UniProt P68400 1-391) (enzyme)

- binding (PACS2, in HEK293 cells): binds
B1: polycystic kidney disease 2 (PKD2), in HEK293 cells (protein, UniProt Q13563 1-968)
chain: T1 sequence

- binding [2]: binds
B2: endogenous PKD2 (SY5Y cells) (protein, UniProt Q13563 1-968)
chain: T1 sequence
